# Test results from the supplement of paper PMC12542422.
# Structures can show the parent of a compound that is named as a salt. ± gives the standard deviation of the averaged measurements. The list shows a part of the results. Values are raw readings; no control value is given beside them.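 Ribosome-assembly readouts in HeLa cells were imaged via ENP1 staining, with or without export block, or inducible tagged ribosomal protein reporters. Machine learning classified per-cell signal location versus solvent (DMSO) controls. Hits surpassed the DMSO false-positive mean by five standard deviations and were visually confirmed; three biological replicates.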
# System: HeLa RPS2-YFP reporter
# Assay: fraction of reporter-positive cells with nuclear (nucleolar or nucleolar/nucleoplasmic) RPS2-YFP (MainHitrate); higher = more cells with nucleolar/nuclear readout signal (for ENP1 -LMB: less RNAPI inhibition; for +LMB ENP1 and RP reporters: stronger nuclear/nucleolar retention, i.e. ribosome biogenesis defect)
# Conditions: concentration: 1 µM; treatment time: 6 h
row,Structure (SMILES),fraction of reporter-positive cells with nuclear
1,OC(CNCC(O)C1CCc2cc(F)ccc2O1)C1CCc2cc(F)ccc2O1 (stereo unspecified) [Nebivolol (Bystolic)],0.122 ± 0.11
2,Nc1ncnc2c1ncn2[C@@H]1O[C@H](COP(=O)(O)OP(=O)(O)OP(=O)(O)O)[C@@H](O)[C@H]1O [ATP (Adenosine-Triphosphate)],0.112 ± 0.086
3,COC(=O)Nc1nc2cc([S+]([O-])c3ccccc3)ccc2[nH]1 (stereo unspecified) [Oxfendazole],0.0942 ± 0.083
4,O=C(O)c1ccccc1 [Benzoic acid],0.118 ± 0.072
5,CCCc1nc(C(C)(C)O)c(C(=O)OCc2oc(=O)oc2C)n1Cc1ccc(-c2ccccc2-c2nnn[nH]2)cc1 [Olmesartan medoxomil (Benicar)],0.116 ± 0.062
6,O=C(O)c1cc(-c2ccccc2)nc2ccccc12 [Cinchophen],0.113 ± 0.11
7,Clc1ccc(C(c2ccccc2Cl)C(Cl)Cl)cc1 (stereo unspecified) [Mitotane (Lysodren)],0.119 ± 0.079
8,CCCCOc1ccc(C(=O)CCN2CCCCC2)cc1 [Dyclonine HCl],0.109 ± 0.093

# An excerpt taken from the entries so far, as a working copy:
row,Structure (SMILES),fraction of reporter-positive cells with nuclear
1,OC(CNCC(O)C1CCc2cc(F)ccc2O1)C1CCc2cc(F)ccc2O1 (stereo unspecified) [Nebivolol (Bystolic)],0.122 ± 0.11
2,Nc1ncnc2c1ncn2[C@@H]1O[C@H](COP(=O)(O)OP(=O)(O)OP(=O)(O)O)[C@@H](O)[C@H]1O [ATP (Adenosine-Triphosphate)],0.112 ± 0.086

# System: HeLa RPL29-GFP reporter
# Assay: fraction of reporter-positive cells with nuclear (nucleolar or nucleolar/nucleoplasmic) RPL29-GFP (MainHitrate); higher = more cells with nucleolar/nuclear readout signal (for ENP1 -LMB: less RNAPI inhibition; for +LMB ENP1 and RP reporters: stronger nuclear/nucleolar retention, i.e. ribosome biogenesis defect)
# Conditions: concentration: 1 µM; treatment time: 6 h
row,Structure (SMILES),fraction of reporter-positive cells with nuclear
1,CN1CCC[C@H]1c1cccnc1 [Nicotine Ditartrate],0.293 ± 0.25
2,CCOC(=O)C1=C(COCCN)NC(C)=C(C(=O)OC)C1c1ccccc1Cl (stereo unspecified) [Amlodipine (Norvasc)],0.226 ± 0.067
3,C[C@]12CC[C@@H]3c4ccc(O)cc4C[C@@H](CCCCCCCCC[S+]([O-])CCCC(F)(F)C(F)(F)F)[C@H]3[C@@H]1CC[C@@H]2O (stereo partly specified) [Fulvestrant (Faslodex)],0.206 ± 0.073
4,COc1ccc(O)cc1 [Mequinol],0.226 ± 0.068
5,Nc1cccc2c1CN(C1CCC(=O)NC1=O)C2=O (stereo unspecified) [Lenalidomide],0.216 ± 0.069
6,O=C(O)COCCN1CCN(C(c2ccccc2)c2ccc(Cl)cc2)CC1 (stereo unspecified) [Cetirizine Dihydrochloride],0.438 ± 0.36
7,COCCOC(=O)C1=C(C)NC(C)=C(C(=O)OC(C)C)C1c1cccc([N+](=O)[O-])c1 (stereo unspecified) [Nimodipine (Nimotop)],0.22 ± 0.098
8,CN1CCCC(n2nc(Cc3ccc(Cl)cc3)c3ccccc3c2=O)CC1 (stereo unspecified) [Azelastine hydrochloride (Astelin)],0.221 ± 0.064
9,CC(C)OC(=O)OCOP(=O)(CO[C@H](C)Cn1cnc2c(N)ncnc21)OCOC(=O)OC(C)C [Tenofovir Disoproxil Fumarate],0.184 ± 0.06
10,OC[C@@H](O)[C@@H](O)[C@H](O)[C@H](O)CO [D-Mannitol (Osmitrol)],0.275 ± 0.095
11,"CC(C)OC(=O)C(C)(C)Oc1ccc(C(=O)c2ccc(Cl)cc2)cc1 [Fenofibrate (Tricor, Trilipix)]",0.254 ± 0.19
12,Cc1ccc(C)c(OCCCC(C)(C)C(=O)O)c1 [Gemfibrozil (Lopid)],0.2 ± 0.062
13,C[C@]12CCC(=O)C=C1[C@@H]1C[C@@H]1[C@H]1[C@@H]3[C@@H]4C[C@@H]4[C@@]4(CCC(=O)O4)[C@@]3(C)CC[C@@H]12 [Drospirenone],0.202 ± 0.058
14,O=C1c2cccc3c2[C@H](CCC3)CN1[C@@H]1CN2CCC1CC2 [Palonosetron HCl],0.211 ± 0.067
15,CN(Cc1cnc2nc(N)nc(N)c2n1)c1ccc(C(=O)N[C@@H](CCC(=O)O)C(=O)O)cc1 [Abitrexate (Methotrexate)],0.191 ± 0.08
16,Cc1ccc(C(=O)c2ccc(CC(=O)O)n2C)cc1 [Tolmetin Sodium],0.295 ± 0.24
17,C=C1CC[C@H](O)C/C1=C/C=C1\CCC[C@]2(C)[C@@H]([C@H](C)CCCC(C)C)CC[C@@H]12 [Vitamin D3 (Cholecalciferol)],0.203 ± 0.08
18,NCC[C@H](O)C(=O)N[C@@H]1C[C@H](N)[C@@H](O[C@H]2O[C@H](CN)[C@@H](O)[C@H](O)[C@H]2O)[C@H](O)[C@H]1O[C@H]1O[C@H](CO)[C@@H](O)[C@H](N)[C@H]1O [Amikacin sulfate],0.221 ± 0.059
19,CN1CCc2cccc3c2[C@H]1Cc1ccc(O)c(O)c1-3 [R-(-)-Apomorphine HCl Hemihydrate],0.29 ± 0.19
20,Cc1nccn1CC1CCc2c(c3ccccc3n2C)C1=O (stereo unspecified) [Ondansetron (Zofran)],0.244 ± 0.083
21,N[C@@H](Cc1cc(I)c(Oc2cc(I)c(O)c(I)c2)c(I)c1)C(=O)O [L-Thyroxine],0.193 ± 0.028
22,O=C(O)CCCN1CCC(O[C@@H](c2ccc(Cl)cc2)c2ccccn2)CC1 [Bepotastine Besilate],0.201 ± 0.055
23,CC[C@@H]([C@H](C)O)n1ncn(-c2ccc(N3CCN(c4ccc(OC[C@@H]5CO[C@@](Cn6cncn6)(c6ccc(F)cc6F)C5)cc4)CC3)cc2)c1=O [Posaconazole],0.203 ± 0.06
